{"source": "the supplement of paper PMC11150407", "note": "Screen size: about 3,000 compounds; about 45 (2%) showed an effect of 50% or more. The list shows a part of the results.", "data": [{"test_system": "MOLM1 and UCSD/AML1 (averaged)", "test": "cell viability relative to DMSO control (POC); higher = less growth inhibition", "settings": "1 µM; 72 h", "method": "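Primary viability screen in the 3q26 EVI1-high AML cell lines MOLM1 and UCSD/AML1, compounds at 1 uM for 72 h. ATP CellTiter-Glo read-out given as percent viable over DMSO control (POC), averaged over duplicates. This mapping covers the TimTec NDL-3000 natural derivative library, whose compounds are identified by TimTec catalogue codes (ST...).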", "units": {"cell viability": "%"}, "values": [{"compound": "Cc1cc2c(C(C)C)c(O)c(O)c(C=Nc3ccc(OCC(N)=O)cc3)c2c(O)c1-c1c(C)cc2c(C(C)C)c(O)c(O)c(C=Nc3ccc(OCC(N)=O)cc3)c2c1O", "cell viability": 109}, {"compound": "CC(C)OC(=O)C1=C(N)Oc2c(oc(CO)cc2=O)C1c1cccnc1", "note": "(stereo unspecified)", "cell viability": 106}, {"compound": "O=c1[nH]c(NCCO)c(I)c(=O)[nH]1", "cell viability": 107}, {"compound": "O=C(COc1cccc(Cl)c1)NNC(=O)c1cc2cc(Br)ccc2oc1=O", "cell viability": 110}, {"compound": "COc1ccc2c(CN3CCN(c4ccccc4OC)CC3)cc(=O)oc2c1", "cell viability": 97.8}, {"compound": "Cc1cc(C(F)(F)F)nc2sc(C(=O)c3ccc4c(c3)OCO4)c(N)c12", "cell viability": 105}, {"compound": "COc1cc(OC)cc(C(=O)c2ccc(C(=O)NC3(c4ccccc4)CC3)cc2)c1", "cell viability": 101}, {"compound": "O=C(O)C1Cc2c([nH]c3ccccc23)C(C(F)(F)C(F)(F)C(F)(F)C(F)F)N1", "note": "(stereo unspecified)", "cell viability": 104}, {"compound": "CCOC(=O)c1sc(NC(=O)/C=C/c2ccccc2)c(C(=O)OCC)c1C", "cell viability": 96}, {"compound": "CC1CCC(C(C)C)C(OC(=O)C(=O)c2ccccc2)C1", "note": "(stereo unspecified)", "cell viability": 87.7}, {"compound": "CCOC(=O)c1c(C)n(CCOCc2ccccc2Cl)c2c1cc(O)c1ccccc12", "cell viability": 92.2}, {"compound": "COCCOC(=O)c1c(C)n(CCc2cccc3ccccc23)c2c1cc(O)c1ccccc12", "cell viability": 95.3}, {"compound": "Cc1oc(-c2ccc(Cl)cc2)nc1CSc1nc2c(=O)[nH]cnc2n1C", "cell viability": 88.3}, {"compound": "Cc1ccc2c(C)cc(=O)[nH]c2c1C", "cell viability": 109}, {"compound": "Cn1c(=O)c2c(nc3n2CC(C24CC5CC(CC(C5)C2)C4)=NN3Cc2ccccc2)n(C)c1=O", "cell viability": 95.7}, {"compound": "O=C(CSc1nc2ccccc2c(=O)[nH]1)NCc1nc2ccccc2[nH]1", "cell viability": 112}, {"compound": "Cn1c(=O)c2c(nc3n(Cc4ccccn4)c(C45CC6CC(CC(C6)C4)C5)cn23)n(C)c1=O", "cell viability": 94.8}, {"compound": "COCCOC(=O)c1c(C)n(-c2ccc(C)cc2)c2c1cc(O)c1ccccc12", "cell viability": 105}, {"compound": "COc1ccc(/C=C/C(=O)Nc2cccc(C(C)=O)c2)cc1OC", "cell viability": 99.6}, {"compound": "COc1cc(C(=O)Nc2ccc3c(c2)NC(=O)C(C)O3)cc(OC)c1OC", "note": "(stereo unspecified)", "cell viability": 94.9}, {"compound": "Cc1ccc2c(c1)c1c(n2C(=O)c2ccnn2C(F)F)CCN(C)C1", "cell viability": 101}, {"compound": "CCc1cccc(NC(=O)CSc2nc3c(=O)[nH]cnc3n2-c2ccc(C)cc2)c1", "cell viability": 89.2}, {"compound": "COc1ccc(OC)c(NC(=O)CSc2nc3ccccc3c(=O)[nH]2)c1", "cell viability": 91.3}, {"compound": "COc1cc(/C=C(\\C#N)C(=O)OC(C)C)cc(OC)c1", "cell viability": 97.3}, {"compound": "Cc1cc2c(c(O)c1-c1c(C)cc3c(c1O)/C(=C/Nc1ccc(S(N)(=O)=O)cc1)C(=O)C(O)=C3C(C)C)/C(=C/Nc1ccc(S(N)(=O)=O)cc1)C(=O)C(O)=C2C(C)C", "cell viability": 85.3}, {"compound": "CSCCC(NC(=O)c1cc(-c2ccccc2)oc1C)C(=O)O", "note": "(stereo unspecified)", "cell viability": 85.7}, {"compound": "Cc1c(Cl)cccc1N=Nc1c(C)c(C#N)c(O)n(CCO)c1=O", "cell viability": 98.3}, {"compound": "CC(C)OC(=O)C1=C(N)Oc2c(oc(CO)cc2=O)C1c1ccc(Cl)c(Cl)c1", "note": "(stereo unspecified)", "cell viability": 106}, {"compound": "COc1ccc(CNC(=O)CSc2ncnc3nc[nH]c23)cc1", "cell viability": 101}, {"compound": "Cc1nc(C(=O)Nc2ccccc2C(=O)O)cc2c1[nH]c1ccccc12", "cell viability": 91.4}, {"compound": "Cc1[nH]c2ccc(F)cc2c1CCNC(=O)c1cccc([N+](=O)[O-])c1", "cell viability": 101}, {"compound": "Cc1cccc(-c2nc(CSc3nc4c(=O)[nH]c(C)nc4n3C)c(C)o2)c1", "cell viability": 99.8}, {"compound": "Cc1cc2c(C(C)C)c(O)c(O)c(C=NCCOc3cccc4cccnc34)c2c(O)c1-c1c(C)cc2c(C(C)C)c(O)c(O)c(C=NCCOc3cccc4cccnc34)c2c1O", "cell viability": 113}, {"compound": "COc1ccc(N2C3=C(C(=O)CC(C)(C)C3)C(c3ccc(O)cc3)C3=C2CC(C)(C)CC3=O)cc1", "cell viability": 85.3}, {"compound": "Cc1cc(C)c(C(=O)NCC(=O)O)c(C)c1", "cell viability": 103}, {"compound": "O=C(N/N=C/C=C/c1ccc2c(c1)OCO2)c1ccncc1", "cell viability": 96.8}, {"compound": "CCN(C(=O)CSc1nc2ccccc2c(=O)[nH]1)c1ccc(C(C)C)cc1", "cell viability": 97}, {"compound": "COc1cc(/C=C2\\N=C(c3ccc(C)cc3)NC2=O)cc(OC)c1OC", "cell viability": 105}, {"compound": "CCc1cccc2c(CCNC(=O)COc3ccc(F)cc3F)c(C)[nH]c12", "cell viability": 92.6}, {"compound": "O=C(O)/C=C\\C(=O)c1ccccc1", "cell viability": 94.7}, {"compound": "O=C(OCC1CCCN2CCCCC12)c1cc2nc(-c3ccccc3)cc(-c3ccccc3)n2n1", "note": "(stereo unspecified)", "cell viability": 77.9}, {"compound": "CCOc1cc(C(=O)N2CCC3(O)CCCCC3C2c2ccc(OC)cc2OC)cc(OCC)c1OCC", "note": "(stereo unspecified)", "cell viability": 99.1}, {"compound": "CCc1ccc2oc(=O)cc(CN3CCC(N4CCCCC4)CC3)c2c1", "cell viability": 103}, {"compound": "Cc1ccc(-c2oc3ccccc3c(=O)c2OCC#N)cc1", "cell viability": 94.9}, {"compound": "O=C(CSc1nc(-c2ccc(Cl)cc2)cn1C12CC3CC(CC(C3)C1)C2)c1ccc2c(c1)OCCO2", "cell viability": 85.2}, {"compound": "COc1ccc(/C=C/C(=O)Nc2ccc(NC(C)=O)cc2)cc1OC", "cell viability": 95.3}, {"compound": "CCCCCC1CCC(=O)N1CCN=Cc1c(O)c(O)c(C(C)C)c2cc(C)c(-c3c(C)cc4c(C(C)C)c(O)c(O)c(C=NCCN5C(=O)CCC5CCCCC)c4c3O)c(O)c12", "note": "(stereo unspecified)", "cell viability": 86.9}, {"compound": "COC(=O)CC(NC(=O)C1CC(C)CCC1C(C)C)C(=O)OC", "note": "(stereo unspecified)", "cell viability": 81.7}, {"compound": "CCc1[nH]nc2c1C(c1cc(OC)cc(OC)c1)C(C#N)=C(N)O2", "note": "(stereo unspecified)", "cell viability": 100}, {"compound": "Cc1ccccc1-c1nc(CSc2nc3c(=O)[nH]cnc3n2C)c(C)o1", "cell viability": 99.5}, {"compound": "COc1cc(C2C(C#N)=C(N)OC3=C2C(=O)CC(C)(C)C3)cc2c1OCO2", "note": "(stereo unspecified)", "cell viability": 105}, {"compound": "CCOc1cc(C(=O)Nc2ccn(C)n2)ccc1OC(F)F", "cell viability": 87.8}, {"compound": "Cc1ccn(C)c(=O)c1C#N", "cell viability": 107}, {"compound": "O=c1[nH]c(=O)n(C2C[C@H](O)[C@@H](CO)O2)cc1I", "note": "(stereo partly specified)", "cell viability": 89.8}, {"compound": "COCCOC(=O)/C(C#N)=C/c1cc(OC)c(OC)cc1OC", "cell viability": 84.2}, {"compound": "COc1cc2c(cc1OC)C(c1ccccc1)NCC2", "note": "(stereo unspecified)", "cell viability": 93.2}, {"compound": "COc1cc(-c2cc(-c3ccccc3)c(C#N)c(=O)[nH]2)cc(OC)c1OC", "cell viability": 93.2}, {"compound": "CCOc1ccc2oc(=O)cc(CN(Cc3ccco3)C3CCCC3)c2c1", "cell viability": 74}, {"compound": "CC(=O)c1ccc(NC(=O)CSc2nc3c(=O)[nH]cnc3n2-c2ccc(C)cc2)cc1", "cell viability": 100}, {"compound": "COc1cc(OC)cc(C(=O)N2CCN(C(=O)c3ccccc3OC)CC2)c1", "cell viability": 101}, {"compound": "COc1cc2c(cc1OC)CN(C(=O)CSc1nc3c(c(-c4ccccc4)c1C#N)CCC3)CC2", "cell viability": 99.6}]}]}
